Data as given in PubChem BioAssay AID1508600 (Functional Genomics Laboratory (NCATS/FGL), 2020).
About 3,700 (7%) of roughly 53,000 sequences were called active.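 How the source made its calls: active means gene knockdowns whose robust z-score for IL-1 alpha signal is at least 2 or at most -2, so actives lie on both sides; inactive means the rest.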 This is one part of the list.

Experiment: Components of the Cytosolic LPS Sensing Pathway: Gene Identification via Genome-wide siRNA Screen;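 further: robust z of the log signal after scaling to non-targeting control siRNA wells of the plate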
Details: RAW264.7 macrophages, IL-1a HTRF, actives lie on both sides, screened at 100 nM (by protocol), cells primed 5 h with Pam3CSK4 first
How it was run: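 Read-out: IL-1a HTRF on supernatant, divided by plate negative-control median ×100, log-transformed and converted to robust z-score. Cells were RAW264.7 given 100 nM siRNA, Pam3CSK4-primed 5 hours, then LipidA-transfected 24 hour.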
With GCUCUAGACAUAUGAGGCUTT against Wee2 the z-score was inactive: -0.0864.
In the case of GGUUAUUUUGGCUAUAAGATT against Traf3, the z-score is reported as active: -4.
With CCCGCUUAUGUGUCAGCAUTT against Sdhd the z-score was inactive: 0.796.
For GCCAAGUGAUUGAAAAAACTT against Lnpk, the z-score was inactive: -0.423.
In the case of GGACUGGACACUGAAUAUGTT against Tom1l2, the z-score is reported as inactive: -1.71.
For GCCACUGAAAGAUAAAGCATT against Map2, the z-score was inactive: -1.06.
In the case of CCGCUACGCCAUGUAUAAATT against Upp1, the z-score is reported as inactive: 0.353.
With GGAAUAAAGAGGUUAAGGGTT against Olfr38 the z-score was inactive: -0.265.
For GCAGUGCGUUAUCUACUGATT against Rb1, the z-score was inactive: 0.865.
For GGAGAUCAAGGUGAUUUCGTT against Rs1, the z-score was inactive: 1.55.
In the case of CCCAGACCAUACUACGGAUTT against Calb2, the z-score is reported as inactive: -1.25.
For GGUUAUAAGCUCCAUCUUGTT against Acy1, the z-score was inactive: -0.135.
With GGAGUAUAUCCUAUUGAUGTT against Sdc2 the z-score was inactive: 0.0615.
In the case of GGCUGGUAAAUCCAACUACTT against Xab2, the z-score is reported as inactive: 0.117.
In the case of GGUUUGUGAACAGCUGUACTT against Gfra3, the z-score is reported as inactive: 0.617.
In the case of GGUGGAAUUAUGCAUGCUATT against Olfr1094, the z-score is reported as inactive: 1.45.
In the case of GCUGUCAUCCCACUCAAACTT against Ralyl, the z-score is reported as inactive: 0.232.
For GGAGCACUAAAUCAAAAAATT against Ptprz1, the z-score was inactive: 1.78.
In the case of GGGUCUGUUUCCUUCUGGUTT against Olfr214, the z-score is reported as inactive: -0.117.
In the case of GCUUCGCACCUACAUCAUGTT against Pnmt, the z-score is reported as inactive: 0.862.
With CCACUUGUAGUUACAAAACTT against Gatad1 the z-score was inactive: 0.701.
With GGCCAGUUCUAUGUCAUGATT against Usf2 the z-score was active: -2.05.
For “GGAGUUAGUGGUCUCCACUTT against A130023I24Rik”, the z-score was inactive: -0.535.
For GGCUGACAUCCAGAAUUUCTT against Eci1, the z-score was inactive: -0.744.
For GGCAGUUACCUAAAACUAUTT against Polh, the z-score was inactive: -0.0545.
With GGAAAACCUGAUGACAGACTT against Apoc2 the z-score was inactive: -0.581.
With GGACUGAUGGAUCCUUCCATT against Krtcap3 the z-score was active: -2.12.
With GGUGAAUAAUAAAUGUCUGTT against Igsf9 the z-score was inactive: 0.375.
In the case of GCACGUAUGGUCAACAUCGTT against Rab2b, the z-score is reported as inactive: -1.42.
With GGUUGUCAAGAAAUUACCCTT against Marchf10 the z-score was active: 2.14.
In the case of CGAACUGGCCAAGAGUUACTT against Nras, the z-score is reported as inactive: -1.13.
In the case of GGGUAACAUCCUCAUGACATT against Zfp282, the z-score is reported as inactive: -0.502.
In the case of GGAGAUGAUGCCGUCAUUCTT against Chaf1b, the z-score is reported as inactive: 1.97.
In the case of GGACUUAGAGAGUAUGGACTT against Ctdp1, the z-score is reported as inactive: 0.385.
For CGUCUCAACAGAGUUGGAGTT against Prmt2, the z-score was inactive: 1.94.
In the case of GGUACAAUGAAAGUCUCACTT against Cnot6, the z-score is reported as inactive: -0.0743.
For GGCUUUUCUGAGGAGCACATT against Cbx5, the z-score was inactive: 0.504.
In the case of GGUAGUACCGUGUUAAGUGTT against Uchl5, the z-score is reported as inactive: -0.208.
With CGAGCAAGCUGACAUCUUUTT against Tbc1d4 the z-score was inactive: -1.28.
In the case of CCUAGACGAUGUCAUGAAGTT against Lrrc4b, the z-score is reported as inactive: -0.0195.
With GGAUUGGUUACCAAAUGGUTT against Mapk6 the z-score was inactive: -1.67.
For GGACACGUUUCUGUGUUGUTT against Tspan32, the z-score was inactive: 0.304.
For GGGAUAUCUCGCUUCUAUATT against Jmjd8, the z-score was inactive: -0.136.
With GGAAAAGAAGACCUACACCTT against Ppp1r1c the z-score was active: -2.04.
In the case of GGAGGUCAGUAGCUUCCUUTT against Krtap26-1, the z-score is reported as inactive: -0.912.
In the case of GGGAGUGUGAGGUAUGAACTT against Lrrtm4, the z-score is reported as inactive: 0.454.
With GGCUUUUGGAAAGUGGCUUTT against Ankrd46 the z-score was inactive: -0.512.
For GAUCAGAUGUUUGGGACUUTT against Olfr512, the z-score was active: 2.25.
With GGGUCUACCACAUGUACAUTT against Slc16a6 the z-score was active: 2.23.
With “CGAACUGGUAGAAGUUAUUTT against Csgalnact2” the z-score was active: 2.07.
In the case of GGGUUGUUUGUCUUGUUCGTT against Rspo2, the z-score is reported as inactive: 0.847.
In the case of GCUAGUCAAGACCAGUCCGTT against Ttl, the z-score is reported as inactive: -1.15.
In the case of GGUAUUUGAAGAACGAAGATT against Fbxo16, the z-score is reported as inactive: -0.388.
In the case of CGGCUUCAGGAGAACAUUATT against Mmaa, the z-score is reported as inactive: 1.03.
In the case of GGCGAGAGUAUGAACACUUTT against Evpl, the z-score is reported as inactive: 0.361.
With GGCAUCUCUGUACAGGAAGTT against Mst1r the z-score was inactive: -1.17.
For GCGCAUCUAUGAAAAAACATT against Cerk, the z-score was inactive: -0.471.
In the case of GCCUGCUAGUUAUGUUUCATT against Akirin2, the z-score is reported as inactive: -0.127.
In the case of GGUGGUUUUGAUUAAUGGGTT against Hpn, the z-score is reported as inactive: 0.274.
With GGUGUGGAGUACCGGAUAATT against Arhgdia the z-score was inactive: 1.09.
For CCCUAUAAGCAACUUAUGCTT against Tor1aip1, the z-score was inactive: -0.115.
In the case of GGUGUCUCUCCAGGAUAACTT against Ctrl, the z-score is reported as inactive: -0.511.
In the case of CGAUAGCAAAGAACCUUAUTT against Mastl, the z-score is reported as inactive: 0.307.
With GGCAUGAGGAUCGUUAGAUTT against Mccc1 the z-score was inactive: -0.266.
For GGAGGUAUUAUCUGAAUUGTT against Utp14a, the z-score was inactive: 1.17.
With GCUCAGAUUUGCUUUAUGATT against Ube2r2 the z-score was inactive: 0.367.
In the case of GGAGGCAGAGAUAACCUUUTT against Sphk1, the z-score is reported as inactive: 1.62.
With GGAUACAUCUGAUUUAAUGTT against Ints10 the z-score was inactive: -1.05.
In the case of CGAGUGGAAAGAUUUAUAGTT against Ubxn2a, the z-score is reported as inactive: -0.603.
